# Laboratory results: the supplement of paper PMC10849652
# Protein sequences, listed by entry. Tags and fused reporters are not part of them. Lines headed by an entry give the natural chain unless they say otherwise; changes in a name come on top.
# UniProt O14967: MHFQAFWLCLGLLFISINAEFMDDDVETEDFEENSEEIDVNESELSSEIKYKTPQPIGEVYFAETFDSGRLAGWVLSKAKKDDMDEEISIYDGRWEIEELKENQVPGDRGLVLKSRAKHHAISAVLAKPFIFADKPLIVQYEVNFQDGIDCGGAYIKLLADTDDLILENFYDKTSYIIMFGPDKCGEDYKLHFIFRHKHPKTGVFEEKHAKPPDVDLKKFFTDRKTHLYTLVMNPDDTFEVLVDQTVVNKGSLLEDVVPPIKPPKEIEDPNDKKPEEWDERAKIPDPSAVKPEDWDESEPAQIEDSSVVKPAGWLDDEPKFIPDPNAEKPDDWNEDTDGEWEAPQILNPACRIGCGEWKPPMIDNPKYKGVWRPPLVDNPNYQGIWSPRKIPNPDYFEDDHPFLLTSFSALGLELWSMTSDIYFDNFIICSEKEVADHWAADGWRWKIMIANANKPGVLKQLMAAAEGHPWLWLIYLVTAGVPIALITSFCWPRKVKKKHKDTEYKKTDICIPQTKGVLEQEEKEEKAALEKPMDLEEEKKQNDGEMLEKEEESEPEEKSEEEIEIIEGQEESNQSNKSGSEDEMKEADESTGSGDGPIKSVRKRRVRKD
# UniProt Q8N1G2: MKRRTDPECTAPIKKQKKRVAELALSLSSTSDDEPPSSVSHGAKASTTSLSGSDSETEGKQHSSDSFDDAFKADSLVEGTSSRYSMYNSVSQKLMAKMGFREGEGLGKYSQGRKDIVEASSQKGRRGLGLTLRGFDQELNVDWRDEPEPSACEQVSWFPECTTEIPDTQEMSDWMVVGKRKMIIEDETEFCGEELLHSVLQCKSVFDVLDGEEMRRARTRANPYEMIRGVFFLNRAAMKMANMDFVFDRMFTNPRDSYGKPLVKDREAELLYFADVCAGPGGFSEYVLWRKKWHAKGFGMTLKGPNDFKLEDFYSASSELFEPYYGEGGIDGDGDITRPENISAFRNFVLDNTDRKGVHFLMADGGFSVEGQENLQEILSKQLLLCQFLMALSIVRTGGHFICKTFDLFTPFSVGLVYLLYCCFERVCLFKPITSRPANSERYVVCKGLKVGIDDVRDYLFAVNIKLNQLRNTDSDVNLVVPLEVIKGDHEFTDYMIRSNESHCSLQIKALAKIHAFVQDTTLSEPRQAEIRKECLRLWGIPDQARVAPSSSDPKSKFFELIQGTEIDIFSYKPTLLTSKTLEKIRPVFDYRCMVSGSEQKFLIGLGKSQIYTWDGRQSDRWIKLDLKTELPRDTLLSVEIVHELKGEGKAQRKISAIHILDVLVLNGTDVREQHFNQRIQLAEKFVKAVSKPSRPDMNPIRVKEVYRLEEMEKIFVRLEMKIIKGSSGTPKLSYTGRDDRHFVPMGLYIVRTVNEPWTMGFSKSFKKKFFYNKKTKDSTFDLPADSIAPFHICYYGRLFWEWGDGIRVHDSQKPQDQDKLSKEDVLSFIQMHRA
# UniProt Q9HAW4: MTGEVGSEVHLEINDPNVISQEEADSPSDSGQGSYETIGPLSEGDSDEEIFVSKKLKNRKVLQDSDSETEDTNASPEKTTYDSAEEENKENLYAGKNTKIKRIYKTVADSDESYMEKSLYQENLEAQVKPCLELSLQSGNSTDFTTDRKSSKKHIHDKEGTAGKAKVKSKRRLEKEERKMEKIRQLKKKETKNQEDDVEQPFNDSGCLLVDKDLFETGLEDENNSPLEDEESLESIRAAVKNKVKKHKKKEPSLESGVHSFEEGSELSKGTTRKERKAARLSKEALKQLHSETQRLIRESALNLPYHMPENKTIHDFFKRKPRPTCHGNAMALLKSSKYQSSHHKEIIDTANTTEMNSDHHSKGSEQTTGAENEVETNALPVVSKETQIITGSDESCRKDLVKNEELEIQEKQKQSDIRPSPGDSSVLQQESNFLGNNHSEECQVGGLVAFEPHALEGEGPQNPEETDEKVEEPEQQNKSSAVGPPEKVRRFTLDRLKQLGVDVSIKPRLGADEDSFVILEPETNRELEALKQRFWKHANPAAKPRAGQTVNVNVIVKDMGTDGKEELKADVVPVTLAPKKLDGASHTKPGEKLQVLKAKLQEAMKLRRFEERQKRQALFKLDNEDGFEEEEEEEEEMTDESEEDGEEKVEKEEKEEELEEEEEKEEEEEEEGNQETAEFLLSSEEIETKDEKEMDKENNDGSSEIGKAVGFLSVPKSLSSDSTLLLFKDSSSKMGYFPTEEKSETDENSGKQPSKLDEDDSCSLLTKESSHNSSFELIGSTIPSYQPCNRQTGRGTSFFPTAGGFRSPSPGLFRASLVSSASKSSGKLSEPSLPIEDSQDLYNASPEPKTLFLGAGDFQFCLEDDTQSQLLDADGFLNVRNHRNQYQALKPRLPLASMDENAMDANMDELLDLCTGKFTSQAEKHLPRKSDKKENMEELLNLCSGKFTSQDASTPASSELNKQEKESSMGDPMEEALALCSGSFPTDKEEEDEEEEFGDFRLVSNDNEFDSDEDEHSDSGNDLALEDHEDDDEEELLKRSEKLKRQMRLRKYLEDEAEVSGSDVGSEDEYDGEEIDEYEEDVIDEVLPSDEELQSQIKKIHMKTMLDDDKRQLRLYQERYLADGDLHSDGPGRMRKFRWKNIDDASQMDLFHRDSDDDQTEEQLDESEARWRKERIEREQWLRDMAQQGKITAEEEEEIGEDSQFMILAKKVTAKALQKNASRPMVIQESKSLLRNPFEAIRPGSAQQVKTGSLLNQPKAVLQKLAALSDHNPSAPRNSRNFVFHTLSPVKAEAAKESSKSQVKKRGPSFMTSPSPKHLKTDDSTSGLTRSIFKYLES
# UniProt O96017, whole entry, looked up: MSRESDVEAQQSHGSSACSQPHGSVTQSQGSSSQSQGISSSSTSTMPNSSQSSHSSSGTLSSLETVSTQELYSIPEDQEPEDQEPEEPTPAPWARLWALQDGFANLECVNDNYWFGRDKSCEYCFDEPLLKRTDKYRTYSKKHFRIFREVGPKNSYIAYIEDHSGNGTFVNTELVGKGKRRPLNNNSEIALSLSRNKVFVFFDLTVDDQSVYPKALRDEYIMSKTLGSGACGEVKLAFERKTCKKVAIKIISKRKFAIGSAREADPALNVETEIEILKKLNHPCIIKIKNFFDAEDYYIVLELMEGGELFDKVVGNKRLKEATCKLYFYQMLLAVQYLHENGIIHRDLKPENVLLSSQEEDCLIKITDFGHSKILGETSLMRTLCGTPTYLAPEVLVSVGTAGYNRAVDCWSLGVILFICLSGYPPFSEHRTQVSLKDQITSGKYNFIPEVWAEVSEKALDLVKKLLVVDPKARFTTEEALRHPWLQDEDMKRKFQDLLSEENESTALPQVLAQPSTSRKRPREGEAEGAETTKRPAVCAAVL
# UniProt Q8N4Q1: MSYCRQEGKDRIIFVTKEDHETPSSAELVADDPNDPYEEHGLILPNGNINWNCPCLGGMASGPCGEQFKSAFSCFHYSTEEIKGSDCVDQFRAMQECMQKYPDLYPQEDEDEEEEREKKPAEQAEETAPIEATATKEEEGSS
# UniProt Q9NRP2: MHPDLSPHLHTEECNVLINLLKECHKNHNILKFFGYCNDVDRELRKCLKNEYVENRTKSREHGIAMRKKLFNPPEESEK
# UniProt P56749: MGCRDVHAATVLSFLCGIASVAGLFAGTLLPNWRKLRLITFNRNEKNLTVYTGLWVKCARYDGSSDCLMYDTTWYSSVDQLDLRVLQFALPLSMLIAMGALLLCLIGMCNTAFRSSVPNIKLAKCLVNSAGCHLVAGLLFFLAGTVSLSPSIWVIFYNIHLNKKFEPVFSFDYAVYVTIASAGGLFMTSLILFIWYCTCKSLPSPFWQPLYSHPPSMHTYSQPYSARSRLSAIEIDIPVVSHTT
# UniProt Q9NWW5: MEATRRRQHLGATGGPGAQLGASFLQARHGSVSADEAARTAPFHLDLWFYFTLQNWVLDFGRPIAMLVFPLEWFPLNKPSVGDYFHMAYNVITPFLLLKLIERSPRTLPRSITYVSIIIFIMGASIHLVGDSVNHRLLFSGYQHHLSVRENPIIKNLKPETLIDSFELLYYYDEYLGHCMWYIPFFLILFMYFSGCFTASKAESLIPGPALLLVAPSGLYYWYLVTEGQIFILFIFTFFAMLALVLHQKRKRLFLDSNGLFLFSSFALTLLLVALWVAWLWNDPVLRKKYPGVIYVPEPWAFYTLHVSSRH
# UniProt Q9NX76: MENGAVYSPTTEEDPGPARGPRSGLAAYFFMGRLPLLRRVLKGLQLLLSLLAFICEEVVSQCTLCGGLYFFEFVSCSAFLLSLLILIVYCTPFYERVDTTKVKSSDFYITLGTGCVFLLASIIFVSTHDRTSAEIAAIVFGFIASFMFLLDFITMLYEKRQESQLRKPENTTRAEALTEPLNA
# UniProt O75503: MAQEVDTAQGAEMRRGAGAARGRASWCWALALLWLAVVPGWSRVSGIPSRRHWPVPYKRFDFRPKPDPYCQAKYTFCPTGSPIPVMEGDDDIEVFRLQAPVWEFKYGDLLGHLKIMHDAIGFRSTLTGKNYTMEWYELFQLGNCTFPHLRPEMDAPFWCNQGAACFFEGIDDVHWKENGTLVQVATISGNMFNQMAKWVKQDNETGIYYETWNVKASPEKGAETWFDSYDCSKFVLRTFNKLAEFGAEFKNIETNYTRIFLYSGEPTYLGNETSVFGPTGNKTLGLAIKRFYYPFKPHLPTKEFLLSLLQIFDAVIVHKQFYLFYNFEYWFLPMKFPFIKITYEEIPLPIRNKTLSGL
# UniProt Q9P2E5: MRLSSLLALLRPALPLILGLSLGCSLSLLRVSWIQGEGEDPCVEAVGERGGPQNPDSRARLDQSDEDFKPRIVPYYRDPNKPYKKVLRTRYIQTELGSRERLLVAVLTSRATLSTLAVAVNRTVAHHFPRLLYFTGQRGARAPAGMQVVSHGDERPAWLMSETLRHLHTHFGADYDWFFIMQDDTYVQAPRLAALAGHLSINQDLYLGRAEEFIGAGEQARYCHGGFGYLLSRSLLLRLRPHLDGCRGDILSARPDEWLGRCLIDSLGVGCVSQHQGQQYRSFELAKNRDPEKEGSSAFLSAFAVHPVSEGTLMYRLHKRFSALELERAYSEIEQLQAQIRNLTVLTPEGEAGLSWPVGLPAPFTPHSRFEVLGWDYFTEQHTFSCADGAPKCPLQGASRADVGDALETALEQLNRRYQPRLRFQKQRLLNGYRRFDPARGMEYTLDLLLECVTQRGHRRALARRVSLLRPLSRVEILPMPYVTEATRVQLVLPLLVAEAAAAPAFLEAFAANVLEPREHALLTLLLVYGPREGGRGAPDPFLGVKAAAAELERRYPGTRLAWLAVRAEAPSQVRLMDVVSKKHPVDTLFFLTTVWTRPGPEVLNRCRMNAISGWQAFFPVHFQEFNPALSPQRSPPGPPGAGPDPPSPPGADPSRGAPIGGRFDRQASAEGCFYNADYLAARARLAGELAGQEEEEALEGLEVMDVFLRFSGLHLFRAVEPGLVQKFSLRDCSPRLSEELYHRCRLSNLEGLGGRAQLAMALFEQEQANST
# UniProt P51797: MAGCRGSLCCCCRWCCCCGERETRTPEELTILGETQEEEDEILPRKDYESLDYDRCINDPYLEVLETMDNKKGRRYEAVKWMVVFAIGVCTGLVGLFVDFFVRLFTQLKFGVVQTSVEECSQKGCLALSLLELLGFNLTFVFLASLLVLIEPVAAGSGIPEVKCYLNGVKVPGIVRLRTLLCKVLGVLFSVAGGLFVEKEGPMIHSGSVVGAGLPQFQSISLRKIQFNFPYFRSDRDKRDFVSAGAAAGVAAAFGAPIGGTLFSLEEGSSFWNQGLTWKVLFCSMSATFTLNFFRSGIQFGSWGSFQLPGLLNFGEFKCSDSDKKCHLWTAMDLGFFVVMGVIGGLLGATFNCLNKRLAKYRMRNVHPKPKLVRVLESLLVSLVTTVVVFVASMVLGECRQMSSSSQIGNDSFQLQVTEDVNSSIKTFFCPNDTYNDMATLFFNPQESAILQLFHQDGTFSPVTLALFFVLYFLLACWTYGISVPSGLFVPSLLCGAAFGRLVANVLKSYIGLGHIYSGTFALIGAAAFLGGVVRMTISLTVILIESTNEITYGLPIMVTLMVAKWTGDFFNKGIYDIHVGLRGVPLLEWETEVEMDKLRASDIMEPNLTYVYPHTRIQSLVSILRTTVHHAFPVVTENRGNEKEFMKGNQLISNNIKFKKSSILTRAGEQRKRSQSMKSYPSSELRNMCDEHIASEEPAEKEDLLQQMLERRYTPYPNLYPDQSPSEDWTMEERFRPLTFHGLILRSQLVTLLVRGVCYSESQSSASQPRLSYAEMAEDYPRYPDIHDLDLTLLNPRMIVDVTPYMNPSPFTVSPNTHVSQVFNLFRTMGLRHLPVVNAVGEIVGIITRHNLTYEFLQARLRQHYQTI
# UniProt Q9Y3D0: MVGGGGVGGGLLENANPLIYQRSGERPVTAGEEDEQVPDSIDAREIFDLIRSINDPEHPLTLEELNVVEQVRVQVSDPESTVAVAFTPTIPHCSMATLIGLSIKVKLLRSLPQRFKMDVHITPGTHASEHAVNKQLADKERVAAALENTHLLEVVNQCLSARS
# UniProt Q9NRG0: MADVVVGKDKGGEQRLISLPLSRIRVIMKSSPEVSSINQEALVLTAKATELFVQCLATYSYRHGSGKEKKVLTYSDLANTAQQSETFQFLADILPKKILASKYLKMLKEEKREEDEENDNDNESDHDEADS
# Some of the results follow.
# Tests used:
# Assay in all cases: log2 fold change, soluble protein after heating vs DMSO (PISA); higher = thermal stabilisation; K562 lysate, 10 uM; active = over 0.2 and 3.5 SD of the protein, either way, in both replicates (recomputed)
# vemurafenib = compound: CCCS(=O)(=O)Nc1ccc(F)c(C(=O)c2c[nH]c3ncc(-c4ccc(Cl)cc4)cc23)c1F [vemurafenib]
# Method in brief: (§1)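 The values are log-two fold changes in thermal stability compared with solvent controls and come from duplicates. They were obtained by TMTpro 16plex LC-MS/MS, with channel sums equalised, on the supernatant after 21,000xg for 90 min. That supernatant came from crude K562 extract at 1 mg/mL protein treated with 10 μM compound for 30 min, heated for 3 min across 48°C-58°C, pooled and brought to 0.5% NP-40 at 4°C.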
# [1] = compound: CCCS(=O)(=O)Nc1ccc(F)c(C(=O)c2c[nH]c3ncc(Cl)cc23)c1F
# Method in brief: as §1
# barasertib = compound: CCN(CCCOc1ccc2c(Nc3cc(CC(=O)Nc4cccc(F)c4)[nH]n3)ncnc2c1)CCOP(=O)(O)O [barasertib]
# Method in brief: as §1
# [2] = compound: CC[C@@H]1C(=O)N(C)c2cnc(Nc3ccc(C(=O)NC4CCN(C)CC4)cc3OC)nc2N1C1CCCC1
# Method in brief: as §1
# volasertib = compound: CC[C@@H]1C(=O)N(C)c2cnc(Nc3ccc(C(=O)N[C@H]4CC[C@H](N5CCN(CC6CC6)CC5)CC4)cc3OC)nc2N1C(C)C [volasertib]
# Method in brief: as §1
# [3] = compound: CCn1c(C(=O)N(C2CC2)C2CC2)cc2c3c(ncn3C)c(Nc3cc(C)n(C)n3)nc21
# Method in brief: as §1
# [4] = compound: CCn1cc(-c2ccnc3[nH]c(-c4cccc(CN(C)C)c4)cc23)c(-c2ccc(NC(=O)N(C)C)cc2)n1
# Method in brief: as §1
# [5] = compound: CN1CCC(CNc2ccc3ncc(-c4cccc(OC(F)(F)F)c4)n3n2)CC1
# Method in brief: as §1
# saracatinib = compound: CN1CCN(CCOc2cc(OC3CCOCC3)c3c(Nc4c(Cl)ccc5c4OCO5)ncnc3c2)CC1 [saracatinib]
# Method in brief: as §1
# sotrastaurin = compound: CN1CCN(c2nc(C3=C(c4c[nH]c5ccccc45)C(=O)NC3=O)c3ccccc3n2)CC1 [sotrastaurin]
# Method in brief: as §1
Target,log2 fold change (vemurafenib),log2 fold change [1],log2 fold change (barasertib),log2 fold change [2],log2 fold change (volasertib),log2 fold change [3],log2 fold change [4],log2 fold change [5],log2 fold change (saracatinib),log2 fold change (sotrastaurin)
CLGN (UniProt O14967),inactive: 0.139,inactive: -0.018,inactive: 0.024,inactive: -0.048,inactive: 0.012,inactive: 0.02,inactive: -0.082,inactive: 0.06,inactive: 0.043,inactive: 0.042
CIAO1 (UniProt O76071),inactive: -0.018,inactive: -0.009,inactive: 0.05,inactive: -0.03,inactive: 0.001,inactive: -0.049,inactive: -0.002,inactive: 0.002,inactive: 0.03,inactive: -0.018
CIAO2A (UniProt Q9H5X1),inactive: -0.028,inactive: -0.032,inactive: 0.094,inactive: -0.042,inactive: -0.007,inactive: 0.026,inactive: 0.233,inactive: -0.203,inactive: 0.033,inactive: 0.034
CHMP3 (UniProt Q9Y3E7),inactive: -0.008,inactive: 0.03,inactive: -0.036,inactive: 0.014,inactive: 0.011,inactive: -0.038,inactive: 0.003,inactive: -0.013,inactive: 0.015,inactive: -0.041
CMTR1 (UniProt Q8N1G2),inactive: -0.007,inactive: -0.003,inactive: 0.018,inactive: -0.084,inactive: -0.059,inactive: 0.024,inactive: 0,inactive: -0.027,inactive: -0.007,inactive: 0.048
CLSPN (UniProt Q9HAW4),inactive: 0.033,inactive: -0.003,inactive: -0.031,inactive: 0.074,inactive: 0.029,inactive: -0.047,inactive: -0.068,inactive: 0.022,inactive: 0.001,inactive: -0.004
CKMT1A (UniProt P12532),inactive: 0.052,inactive: 0.007,inactive: 0.025,inactive: 0.05,inactive: 0.005,inactive: -0.038,inactive: -0.015,inactive: 0.063,inactive: -0.013,inactive: 0.032
CHCHD6 (UniProt Q9BRQ6),inactive: -0.053,inactive: 0,inactive: 0.026,inactive: 0.125,inactive: 0.352,inactive: -0.005,inactive: 0.03,inactive: 0.011,inactive: -0.213,inactive: -0.051
CLIC1 (UniProt O00299),inactive: -0.029,inactive: 0.004,inactive: -0.029,inactive: 0.009,inactive: 0.009,inactive: -0.005,inactive: -0.011,inactive: 0.015,inactive: -0.019,inactive: 0.015
CHEK2 (UniProt O96017),inactive: -0.059,inactive: 0.042,inactive: 0.087,inactive: -0.06,inactive: -0.044,inactive: 0.051,inactive: 0.08,inactive: -0.057,inactive: -0.036,inactive: 0
CHCHD4 isoform 2 (UniProt Q8N4Q1),inactive: 0.144,inactive: 0.015,inactive: 0.109,inactive: 0.072,inactive: 0.057,inactive: -0.1,active: -0.415,inactive: 0.228,inactive: 0.05,inactive: -0.007
CLUH (UniProt O75153),inactive: -0.03,inactive: 0.014,inactive: 0.024,inactive: 0.012,inactive: -0.02,inactive: -0.009,inactive: -0.024,inactive: 0.117,inactive: 0.011,inactive: 0.01
CINP isoform 3 (UniProt Q9BW66),inactive: -0.071,inactive: 0.01,inactive: 0.052,inactive: 0.098,inactive: -0.05,inactive: -0.033,inactive: -0.331,inactive: 0.189,inactive: 0.047,inactive: 0.014
CIAO3 (UniProt Q9H6Q4),inactive: 0.018,inactive: 0.016,inactive: -0.036,inactive: 0.009,inactive: -0.014,inactive: -0.026,inactive: -0.093,inactive: 0.035,inactive: 0.008,inactive: 0.013
CHD4 isoform 2 (UniProt Q14839),inactive: 0,inactive: 0.002,inactive: 0.028,inactive: -0.003,inactive: -0.002,inactive: 0.022,inactive: -0.054,inactive: -0.017,inactive: 0.002,inactive: 0.02
CLIP1 isoform 2 (UniProt P30622),–,inactive: 0.112,inactive: -0.083,inactive: 0.073,inactive: 0.055,inactive: -0.04,inactive: -0.488,inactive: 0.02,inactive: 0.028,inactive: -0.026
"CLUH, A0A494C0R8",inactive: -0.11,inactive: 0.027,inactive: -0.092,inactive: 0.097,inactive: -0.005,inactive: 0,active: 0.59,inactive: -0.047,inactive: 0.03,inactive: 0.051

# At a glance, some entries already given.
Target,log2 fold change (vemurafenib),log2 fold change [1],log2 fold change (barasertib),log2 fold change [2],log2 fold change (volasertib),log2 fold change [3],log2 fold change [4],log2 fold change [5],log2 fold change (saracatinib),log2 fold change (sotrastaurin)
CHCHD4 isoform 2 (UniProt Q8N4Q1),inactive: 0.144,inactive: 0.015,inactive: 0.109,inactive: 0.072,inactive: 0.057,inactive: -0.1,active: -0.415,inactive: 0.228,inactive: 0.05,inactive: -0.007
CLUH (UniProt O75153),inactive: -0.03,inactive: 0.014,inactive: 0.024,inactive: 0.012,inactive: -0.02,inactive: -0.009,inactive: -0.024,inactive: 0.117,inactive: 0.011,inactive: 0.01

# Further entries follow.

Target,log2 fold change (vemurafenib),log2 fold change [1],log2 fold change (barasertib),log2 fold change [2],log2 fold change (volasertib),log2 fold change [3],log2 fold change [4],log2 fold change [5],log2 fold change (saracatinib),log2 fold change (sotrastaurin)
CMC2 (UniProt Q9NRP2),inactive: -0.029,inactive: 0.036,inactive: 0.019,inactive: 0.033,inactive: 0.006,inactive: 0.16,inactive: 0.087,inactive: -0.018,inactive: 0.062,inactive: 0.076
CLDN12 (UniProt P56749),–,inactive: -0.076,inactive: 0.044,inactive: 0.069,inactive: 0.058,inactive: 0.067,inactive: 0.049,inactive: 0.081,inactive: 0.003,inactive: 0.024
CLN6 (UniProt Q9NWW5),inactive: 0.045,–,inactive: 0.022,inactive: 0.025,–,inactive: -0.025,–,–,inactive: 0.082,inactive: 0.072
CMTM6 (UniProt Q9NX76),–,inactive: 0.061,inactive: 0.031,inactive: -0.039,inactive: 0.091,inactive: -0.103,inactive: -0.077,inactive: 0.104,inactive: 0.052,inactive: 0.256
CMTM4 (UniProt Q8IZR5),inactive: 0.086,inactive: 0.06,–,–,inactive: 0.139,–,inactive: -0.009,inactive: -0.005,–,inactive: 0.013
CLN5 (UniProt O75503),inactive: 0.025,inactive: -0.064,inactive: 0.187,inactive: -0.203,inactive: -0.114,–,inactive: 0.008,inactive: 0.097,–,–
"CLIP1, A0A3B3ITA2",inactive: -0.026,–,–,–,–,inactive: -0.015,inactive: -0.515,active: 0.634,–,inactive: -0.021
CHD3 isoform 3 (UniProt Q12873),inactive: -0.033,inactive: 0.009,inactive: 0.035,inactive: -0.02,inactive: -0.018,inactive: -0.039,inactive: -0.066,inactive: -0.027,inactive: 0.001,inactive: 0.004
CLK3 (UniProt P49761),inactive: 0.101,inactive: -0.008,–,inactive: 0.027,inactive: -0.03,–,–,–,inactive: -0.056,inactive: -0.065
CHMP2B (UniProt Q9UQN3),inactive: -0.016,inactive: 0,inactive: -0.014,inactive: 0.035,inactive: -0.001,inactive: -0.031,inactive: 0.034,inactive: -0.025,inactive: 0.022,inactive: 0.024
CHPF2 (UniProt Q9P2E5),inactive: -0.123,–,–,inactive: -0.112,–,inactive: -0.026,–,–,inactive: -0.085,inactive: -0.035
CLCN6 isoform 5 (UniProt P51797),inactive: 0.019,inactive: 0.021,inactive: 0.127,inactive: 0.072,inactive: 0.04,inactive: -0.1,–,–,inactive: 0.075,inactive: 0.05
CHD7 (UniProt Q9P2D1),inactive: -0.035,inactive: 0.067,inactive: 0.078,inactive: -0.106,inactive: -0.101,inactive: 0.128,inactive: 0,inactive: -0.09,inactive: -0.055,inactive: 0.03
CIAO2B (UniProt Q9Y3D0),inactive: -0.004,inactive: 0.036,inactive: 0.123,inactive: -0.053,inactive: -0.022,inactive: 0.025,–,–,inactive: 0.049,inactive: 0.084
CISD3 (UniProt P0C7P0),inactive: -0.049,inactive: 0.003,–,inactive: 0.037,inactive: -0.022,inactive: 0.046,inactive: -0.029,inactive: -0.088,inactive: -0.028,inactive: -0.013
CHRAC1 (UniProt Q9NRG0),inactive: -0.024,inactive: 0.009,inactive: -0.005,inactive: 0.015,inactive: -0.037,inactive: 0.07,inactive: -0.059,inactive: 0.048,inactive: -0.019,inactive: 0.003
CLIP4 (UniProt Q8N3C7),inactive: -0.006,inactive: 0.012,inactive: 0.098,inactive: -0.04,inactive: 0.04,inactive: 0.026,inactive: -0.045,inactive: 0.028,–,inactive: -0.025
